Reference: patent EP4530297A1
These are yes or no findings as the source states them, for the method shown. Some results given as binding are weak or reduced against the parent protein; the word gives no strength.

Biological target: T1, ASGR1 (truncation constructs expressed from plasmids in Huh7 cells) (Homo sapiens (Human)) (UniProt P07306)
T1 sequence: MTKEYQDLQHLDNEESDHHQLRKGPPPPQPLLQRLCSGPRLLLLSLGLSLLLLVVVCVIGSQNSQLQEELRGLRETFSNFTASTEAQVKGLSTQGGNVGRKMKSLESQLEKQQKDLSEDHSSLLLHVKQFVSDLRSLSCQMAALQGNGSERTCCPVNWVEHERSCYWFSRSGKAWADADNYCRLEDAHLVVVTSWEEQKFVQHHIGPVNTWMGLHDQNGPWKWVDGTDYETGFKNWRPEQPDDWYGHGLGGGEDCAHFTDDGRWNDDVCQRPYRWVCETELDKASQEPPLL
Experiment: Western blotting of Huh7 cells transfected with ASGR1 truncation plasmids

B1: ASGR1 neutralizing antibody 4B9 (antibody, V domains shown)
VH: QSLEESGGDLVKPGATMTLTCKASGFSFSGSLWICWVRQAPGKGLEWIACIYVGSSGSTYYASWAKGRFTISTTSSTTVTLQMTSLTAADTATYFCARRYTDAYGGYPAGSFVFKLWGPGTLVTVSS
VL: QVLTQTPSPVSAAVGGTVTINCQASQSVYNNKNLGWYQQKPGQPPKLLIYYASDLASGVPSRFKGSGSGKQFTLTISDVQCDDAATYYCQGEFSCSSADCCAFGGGTEVVVK
binding: binds
